This passage reports binding results from PMC7720772.

The chains behind the UniProt entries cited, without tags or fusion partners.
UniProt Q9H4A3: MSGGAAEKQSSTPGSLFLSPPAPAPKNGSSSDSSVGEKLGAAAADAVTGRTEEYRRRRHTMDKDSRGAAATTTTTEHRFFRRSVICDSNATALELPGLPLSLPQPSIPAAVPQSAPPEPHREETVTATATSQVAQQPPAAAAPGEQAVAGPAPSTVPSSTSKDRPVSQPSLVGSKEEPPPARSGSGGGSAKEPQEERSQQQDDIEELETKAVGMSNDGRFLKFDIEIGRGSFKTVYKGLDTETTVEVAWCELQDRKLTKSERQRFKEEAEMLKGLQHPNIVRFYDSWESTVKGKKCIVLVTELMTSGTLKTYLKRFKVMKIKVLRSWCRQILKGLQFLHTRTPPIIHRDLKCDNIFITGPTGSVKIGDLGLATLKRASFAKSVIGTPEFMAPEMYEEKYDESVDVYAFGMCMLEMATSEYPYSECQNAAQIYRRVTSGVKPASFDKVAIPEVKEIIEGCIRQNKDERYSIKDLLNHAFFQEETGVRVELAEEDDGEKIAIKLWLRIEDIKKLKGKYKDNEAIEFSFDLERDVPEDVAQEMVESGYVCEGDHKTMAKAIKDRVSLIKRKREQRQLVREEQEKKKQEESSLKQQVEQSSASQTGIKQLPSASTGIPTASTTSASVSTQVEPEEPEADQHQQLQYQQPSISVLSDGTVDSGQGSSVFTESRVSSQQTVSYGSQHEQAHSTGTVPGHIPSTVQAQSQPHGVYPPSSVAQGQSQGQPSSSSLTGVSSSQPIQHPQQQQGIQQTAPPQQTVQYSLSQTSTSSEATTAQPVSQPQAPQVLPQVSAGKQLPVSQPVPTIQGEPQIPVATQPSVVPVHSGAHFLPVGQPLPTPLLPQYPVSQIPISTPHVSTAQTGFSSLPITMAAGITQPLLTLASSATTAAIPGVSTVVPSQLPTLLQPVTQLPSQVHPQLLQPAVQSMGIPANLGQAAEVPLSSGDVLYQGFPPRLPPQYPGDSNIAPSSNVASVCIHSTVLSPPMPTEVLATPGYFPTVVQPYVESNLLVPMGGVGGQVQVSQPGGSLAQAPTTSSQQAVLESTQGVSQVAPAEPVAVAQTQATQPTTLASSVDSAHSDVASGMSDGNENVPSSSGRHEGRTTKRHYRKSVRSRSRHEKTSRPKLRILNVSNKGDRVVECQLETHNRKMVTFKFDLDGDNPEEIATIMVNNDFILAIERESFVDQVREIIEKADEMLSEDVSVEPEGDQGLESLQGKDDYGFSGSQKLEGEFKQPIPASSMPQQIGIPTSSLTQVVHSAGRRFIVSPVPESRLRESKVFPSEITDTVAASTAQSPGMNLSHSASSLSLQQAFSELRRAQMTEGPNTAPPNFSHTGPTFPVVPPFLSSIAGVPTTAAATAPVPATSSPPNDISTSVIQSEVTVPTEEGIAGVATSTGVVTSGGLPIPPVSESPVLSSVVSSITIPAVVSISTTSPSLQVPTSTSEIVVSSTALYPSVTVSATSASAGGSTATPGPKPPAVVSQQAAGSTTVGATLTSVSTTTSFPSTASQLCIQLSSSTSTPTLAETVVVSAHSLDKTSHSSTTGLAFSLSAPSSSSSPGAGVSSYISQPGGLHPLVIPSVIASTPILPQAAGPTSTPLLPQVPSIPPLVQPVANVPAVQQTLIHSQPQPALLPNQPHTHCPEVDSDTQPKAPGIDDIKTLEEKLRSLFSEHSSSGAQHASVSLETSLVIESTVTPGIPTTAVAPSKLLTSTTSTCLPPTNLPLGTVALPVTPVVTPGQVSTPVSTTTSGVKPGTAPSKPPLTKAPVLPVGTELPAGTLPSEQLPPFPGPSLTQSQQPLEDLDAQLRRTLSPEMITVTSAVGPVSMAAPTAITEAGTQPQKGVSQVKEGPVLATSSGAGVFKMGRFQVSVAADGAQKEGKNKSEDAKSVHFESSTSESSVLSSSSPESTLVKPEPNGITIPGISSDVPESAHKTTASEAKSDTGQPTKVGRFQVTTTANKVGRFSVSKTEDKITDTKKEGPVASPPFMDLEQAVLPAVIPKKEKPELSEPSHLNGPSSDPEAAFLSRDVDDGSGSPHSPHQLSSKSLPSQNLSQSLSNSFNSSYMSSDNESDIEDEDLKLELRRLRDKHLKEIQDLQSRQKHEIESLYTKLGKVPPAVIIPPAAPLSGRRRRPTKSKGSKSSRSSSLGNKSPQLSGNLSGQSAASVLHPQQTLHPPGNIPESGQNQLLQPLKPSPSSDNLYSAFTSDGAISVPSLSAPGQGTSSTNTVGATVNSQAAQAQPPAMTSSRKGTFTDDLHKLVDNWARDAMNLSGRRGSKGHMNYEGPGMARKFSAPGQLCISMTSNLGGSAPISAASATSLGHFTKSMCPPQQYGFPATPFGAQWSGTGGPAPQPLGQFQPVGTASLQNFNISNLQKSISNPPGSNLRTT
UniProt Q96SB4: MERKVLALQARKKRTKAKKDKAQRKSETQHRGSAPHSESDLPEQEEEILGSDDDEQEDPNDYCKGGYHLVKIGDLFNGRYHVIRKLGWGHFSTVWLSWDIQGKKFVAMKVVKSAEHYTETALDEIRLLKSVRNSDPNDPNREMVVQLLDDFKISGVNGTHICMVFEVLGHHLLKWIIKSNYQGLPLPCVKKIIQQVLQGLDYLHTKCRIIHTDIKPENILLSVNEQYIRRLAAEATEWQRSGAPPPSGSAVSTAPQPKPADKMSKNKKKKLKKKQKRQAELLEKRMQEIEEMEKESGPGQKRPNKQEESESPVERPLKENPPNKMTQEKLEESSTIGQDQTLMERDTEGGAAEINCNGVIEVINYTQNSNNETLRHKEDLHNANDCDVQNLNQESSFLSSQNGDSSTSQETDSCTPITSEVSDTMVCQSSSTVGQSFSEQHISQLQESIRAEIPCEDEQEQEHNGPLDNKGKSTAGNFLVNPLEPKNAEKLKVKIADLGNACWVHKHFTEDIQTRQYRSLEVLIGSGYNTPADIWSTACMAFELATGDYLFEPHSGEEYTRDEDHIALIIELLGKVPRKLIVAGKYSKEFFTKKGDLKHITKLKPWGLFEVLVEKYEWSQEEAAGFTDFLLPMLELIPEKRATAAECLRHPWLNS
UniProt P49841: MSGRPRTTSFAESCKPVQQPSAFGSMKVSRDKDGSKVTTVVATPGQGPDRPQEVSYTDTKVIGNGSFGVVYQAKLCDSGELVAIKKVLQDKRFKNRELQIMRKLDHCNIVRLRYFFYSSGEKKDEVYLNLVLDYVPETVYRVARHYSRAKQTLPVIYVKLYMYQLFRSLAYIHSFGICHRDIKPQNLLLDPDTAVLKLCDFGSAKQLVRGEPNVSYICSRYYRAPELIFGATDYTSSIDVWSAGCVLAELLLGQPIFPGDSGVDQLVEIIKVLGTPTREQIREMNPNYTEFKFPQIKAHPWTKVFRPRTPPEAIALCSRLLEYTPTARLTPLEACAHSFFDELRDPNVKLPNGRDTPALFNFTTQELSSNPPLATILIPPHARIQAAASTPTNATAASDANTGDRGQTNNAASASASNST

The target in assay [1] is WNK1 (human (endogenous in HT29)) (UniProt Q9H4A3). As to the kind of experiment: co-IP; HT29 cells crosslinked with DSP and SPDP for 2 h, lysed in 1% NP40 buffer; endogenous WNK1 precipitated with anti-WNK1 crosslinked to protein G agarose beads, overnight at 4°C; de-crosslinked with 100 mM DTT; Western blot; cells untreated or treated 48 h with DMSO or 500 μM ibuprofen (less GSK3β and SRPK1 co-precipitated with ibuprofen).

Assay [2] deals with SRPK1 (human (endogenous in HT29)) (UniProt Q96SB4). Description: co-IP; HT29 cells treated 48 h with DMSO or 500 μM ibuprofen, crosslinked with DSP and SPDP, lysed in 1% NP40 buffer; endogenous SRPK1 precipitated with anti-SRPK1 crosslinked to protein G agarose beads, overnight at 4°C; de-crosslinked with 100 mM DTT; Western blot.

These are yes or no findings as the source states them, for the method shown. In cells and extracts the contact can be indirect. Some binding calls cover weakened binding; strength is not graded here.

For “SRPK1 (from UniProt Q96SB4 1-655) (enzyme)”, in assay [1], the binding result was “binds”. As to “GSK3β (from UniProt P49841 1-420) (enzyme)”, the binding entry in assay [2] and in assay [1] was “binds” throughout. Regarding “WNK1 (from UniProt Q9H4A3 1-2382) (enzyme)”, the binding result in assay [2] is given as “binds”.
